Experimental findings from patent US4670540A (Ajinomoto Co., Inc., priority 1984, dated 1987) are described below.

Strings that start with PEPTIDE1 are HELM notation: dots part the residues, brackets hold end groups and non-standard residues. Square brackets hold non-standard residues; d marks the D form. Ends that are not written are not given here. * marks the point of attachment. Tos = Cc1ccc(S(=O)(=O)*)cc1; Nle = CCCC[C@H](N)C(=O)O; OPac = O=C(CO*)c1ccccc1; Boc = CC(C)(C)OC(=O)*; OcHex = C1CCC(O*)CC1; Meb = Cc1ccc(C*)cc1; OBn = c1ccc(CO*)cc1; Bn = c1ccc(C*)cc1

The first series can be described thus: general procedure: solution-phase peptide synthesis; WSCI/HOBt. The conditions noted are these: coupling step.
“Boc-Ala-Gln-Ser(Bzl)-Gly-Leu-Gly-Asu[Phe-Gly-Gly-Arg(Tos)-Met-Asp(OChx)-Arg(Tos)-Ile-Gly-OPac]-Asn-Ser(Bzl)-Phe-Arg(Tos)-Tyr(Cl2Bzl)-OBzl” gave a step yield of 81%.

Turning to “Boc-Ala-Gln-Ser(Bzl)-Gly-Leu-GlyAsu[Phe-Gly-Gly-Arg(Tos)-Nle-Asp(OBzl)-Arg(Tos)-Ile-Gly-OPac]-Asn-Ser(Bzl)-Phe-Arg(Tos)-Tyr(Cl2 Bzl)-OBzl”, the step yield is reported as 85%.

“Boc-Ala-Gln-Ser(Bzl)Gly-Leu-Gly-Asu(OPac)-Asn-Ser(Bzl)-Phe-Arg(Tos)-Tyr(Cl2 Bzl)-OBzl” registered a step yield of 68%.

“Boc-AlaGlnSer(Bzl)GlnLeuGlyAsu(OPac)-OBzl” gave a step yield of 88%.

With “Boc-AlaGlnSer(Bzl)GlyLeuGlyCys(4-MeBzl)AsnSer(Bzl) PheArg(Tos)Tyr(Cl2 Bzl)-OBzl”, the step yield is listed as 93.9%.

“Boc-AlaGlnSer(Bzl)GlyLeuGlyCys(4-MeBzl)AsnSer(Bzl)-OBzl (17-25)” showed a step yield of 96%.

With “Boc-Arg(Tos)MetAsp(OBzl)Arg (Tos)IleGlyAlaGlnSer(Bzl)GlyLeuGlyCys(4-MeBzl)AsnSer(Bzl)PheArg(Tos)Tyr(Cl2 Bzl)-OBzl”, the step yield turned out to be 97.9%.

For “Boc-Arg(Tos)MetAsp(OBzl)Arg(Tos)Ile-GlyAlaGlnSer(Bzl)GlyLeuGlyCys(4-MeBzl)AsnSer-(Bzl)-OBzl(11-25)”, the step yield was 94%.

On to “Boc-Arg(Tos)MetAsp(OBzl)Arg(Tos)IleGlyAlaGlnSer(Bzl)GlyLeuGlyAsu(OPac)-OBz”, for which the step yield is recorded as 86%.

The substance “Boc-Arg(Tos)MetAsp(OBzl)Arg(Tos)IleGlylAaGlnSer(Bzl)GlyLeuGlyCys(4-MeBzl)AsnSer(Bzl)PheArg(Tos)-OBzl” yielded a step yield of 91.2%.

For “Boc-Arg(Tos)NleAsp(OBzl)Arg(Tos)-IleGlyAlaGlnSer(Bzl)GlyLeuGlyCys(4-MeBzl)-AsnSer(Bzl)PheArg(Tos)Tyr(OBzl)-OBzl”, the step yield was determined as 93.4%.

“Boc-AsnSer(Bzl)PheArg(Tos)Tyr(Cl2 Bzl)-OBzl” returned a step yield of 90.9%.

For the substance Boc-C(Meb)FGG-OPac, the step yield is 80.1%.

“Boc-Cys(4-CH3 Bzl)-Phe-Gly-Gly-Arg(Tos)-Met-D-Asp(OBzl)-Arg(Tos)-Ile -Gly-Ala-Gln-Ser(Bzl)-Gly-Leu-Gly-Cys(4-CH3 Bzl)-Asn-Ser(Bzl)-Phe-Arg(Tos)Tyr(Cl2 Bzl)-OBzl” had a step yield of 94.5%.

Consider “Boc-Cys(4-CH3 Bzl)-Phe-Gly-Gly-Arg(Tos)-Met-D-Asp(OBzl)-Arg(Tos)-Ile-Gly-OPac”, for which the step yield is on record as 81.9%.

“Boc-Cys(4-MeBzl)AsnSer(Bzl)PheArg(Tos)Tyr(Cl2 Bzl)-OBzl” had a step yield of 95.4%.

Substance “Boc-Cys(4-MeBzl)PheGlyGlyArg(Tos)MetAsp(OBzl)Arg(Tos)IleGlyAlaGlnSer(Bzl)GlyLeuGlyCys(4-MeBzl)AsnSer(OBzl)PheArg (2Bzl)-OBzl” had a step yield of 91.6%.

As to Boc-FGGR(Tos)MD(OcHex)R(Tos)IG-OPac, the step yield was found to be 92%.

As for Boc-FGGR(Tos)[Nle]D(OBn)R(Tos)IG-OPac, the step yield is on record as 79%.

As to “Boc-LR(Tos)R(Tos)S(Bn)S(Bn)C(Meb)FGG-OPac”, the step yield was 92.2%.

In the case of Boc-M[dD](OBn)R(Tos)IG-OPac, the step yield is 84.2%.

Boc-NS(Bn)FR(Tos)-OBn came in with a step yield of 84.9%.

Regarding “Boc-PheGlyGlyaAg(Tos)MetAsp(OBzl)Arg(Tos)IleGlyAlaGlnSer(Bzl)GlyLeuGlyAsu (OPac)-OBzl”, the step yield was 92%.

In turn, Boc-R(Tos)MD(OBn)R(Tos)IG-OPac registered a step yield of 94%.

Consider Boc-R(Tos)M[dD](OBn)R(Tos)IG-OPac, for which the step yield is listed as 64.7%.

For “Boc-R(Tos)R(Tos)S(Bn)S(Bn)C(Meb)FGG-OPac”, the step yield is on record as 88.6%.

Boc-R(Tos)S(Bn)S(Bn)C(Meb)FGG-OPac yielded a step yield of 92.9%.

As to Boc-R(Tos)[Nle]D(OBn)R, the step yield turned out to be 91%.

“Boc-S(Bn)LR(Tos)R(Tos)S(Bn)S(Bn)C(Meb)FGG-OPac” displayed a step yield of 91.8%.

Substance Boc-S(Bn)S(Bn)C(Meb)FGG-OPac yielded a step yield of 91.7%.

Take Boc-Ser(Bzl)Cys(4-Bzl)PheGlyGly-OPac: the step yield is recorded as 80.7%.

“Boc-Ser(Bzl)LeuArg(Tos)Arg(Tos) Ser(Bzl)SerCys(4-MeBzl)PheGlyGlyArg(Tos)Met Asp(OBzl)Arg(Tos)IleGlyAlaGlnSer(Bzl)GlyLeuGly Cys(4-MeBzl)AsnSer(Bzl)PheArg(Tos) Tyr (Cl2 Bzl)-OBzl” returned a step yield of 96.5%.

“Boc-Ser(Bzl)LeuArg(Tos)Arg(Tos)Ser(Bzl)Ser(Bzl)Cys(4-MeBzl)PheGlyGlyArg(Tos)NleAsp(OBzl)Arg(Tos)IleGlyAlaGlnSer(Bzl)GlyLeuGlyCys(4MeBzl)AsnSer(Bzl)PheArg(Tos)Tyr(OBzl)-OBzl” yielded a step yield of 92.9%.

As to Boc-Ser(Bzl)PheArg(Tos)Tyr(Cl2 Bzl)OBzl, the step yield is listed as 85.5%.

“Boc-Ser(Bzl)Ser(Bzl)Cys (4-MeBzl)Phe-GlyGlyArg(Tos)MetAsp(OBzl)Arg(Tos)IleGly-AlaGlnSer(Bzl)GlyLeuGlyCys(4MeBzyl) AsnSer(Bzl)PheArg(Tos)-OBzl” displayed a step yield of 80.5%.

Turning to “Boc-Ser(Bzl)Ser(Bzl)Cys(4-MeBzl)PheGlyGlyArg(Tos)MetAsp(OBzl)Arg(Tos) IleGlyAlaGlnSer(Bzl)-GlyLeuGlyCys(4-MeBzl)AsnSer(Bzl)PheArg(Tos)Tyr(Cl2 Bzl)-OBzl”, the step yield is on record as 91.3%.

The substance Boc-[Nle]D(OBn)R(Tos)IG-OPac had a step yield of 83%.

For Boc-[dD](OBn)R(Tos)IG-OPac, the step yield came out at 86.6%.

Take “PEPTIDE1{C.F.G.G.R.M.[dD].R.I.G.A.Q.S.G.L.G.C.N.S.F.R.Y}$PEPTIDE1,PEPTIDE1,1:R3-17:R3$$$V2.0”: the step yield was 95%.

For the substance “PEPTIDE1{C.F.G.R.M.D.R.I.G.A.Q.S.G.L.G.C.N.S.F.R.Y}$PEPTIDE1,PEPTIDE1,1:R3-16:R3$$$V2.0”, the step yield is 98%.

In the case of “PEPTIDE1{F.G.G.R.M.D.R.I.G.A.Q.S.G.L.G.[Asu].N.S.F.R.Y}$PEPTIDE1,PEPTIDE1,1:R1-16:R3$$$V2.0”, the step yield was determined as 92.5%.

“PEPTIDE1{F.G.G.R.M.D.R.I.G.A.Q.S.G.L.G.[Asu]}$PEPTIDE1,PEPTIDE1,1:R1-16:R3$$$V2.0” yielded a step yield of 75.4%.

Consider “PEPTIDE1{F.G.G.R.[Nle].D.R.I.G.A.Q.S.G.L.G.[Asu].N.S.F.R.Y}$PEPTIDE1,PEPTIDE1,1:R1-16:R3$$$V2.0”, for which the step yield was determined as 94%.

Take “PEPTIDE1{S.L.R.R.S.S.C.F.G.G.R.[Met(O)].D.R.I.G.A.Q.S.G.L.G.C.N.S.F.R.Y}$PEPTIDE1,PEPTIDE1,7:R3-23:R3$$$V2.0”: the step yield worked out at 96.5%.

“PEPTIDE1{S.S.C.F.G.G.R.M.D.R.I.G.A.Q.S.G.L.G.C.N.S}$PEPTIDE1,PEPTIDE1,3:R3-19:R3$$$V2.0” registered a step yield of 90.3%.

Z-Cys(4-CH3 Bzl)-Phe-D-Ala-Gly-OH yielded a step yield of 72.4%.

Staying with this series, now noted: late stage modification step.
For the substance “Boc-Ala-Gln-Ser(Bzl)-Gly-Leu-Gly-Asu(OH)-Asn-Ser(Bzl)-Phe-Arg(Tos)-Tyr(Cl2 Bzl)-OBzl”, the step yield was determined as 86%.

Regarding “Boc-Ala-Gln-Ser(Bzl)-Gly-Leu-Gly-Asu[Phe-Gly-Gly-Arg(Tos)-Met-Asp(OChx)-Arg(Tos)-Ile-Gly-OH]-Asn-Ser(Bzl)-Phe-Arg(Tos)-Tyr(Cl2Bzl)-OBzl”, the step yield came to 95%.

Substance “Boc-Ala-Gln-Ser(Bzl)-Gly-Leu-Gly-Asu[Phe-Gly-Gly-Arg(Tos)-Nle-Asp(OBzl)-Arg(Tos)-Ile-GlyOH]-Asn-Ser(Bzl)-Phe-Arg(Tos)-Tyr(Cl2 Bzl)-OBzl” registered a step yield of 89%.

The substance “Boc-Arg(Tos)-Ser(Bzl)-Ser(Bzl)-Cys(4-CH3 Bzl)-Phe-Gly-Gly-OH” yielded a step yield of 82.0%.

On to Boc-C(Meb)FGG-OH, for which the step yield is 87.3%.

On to “Boc-Cys(4-CH3 Bzl)-Phe-Gly-Gly-Arg(Tos)-Met-D-Asp(OBzl)-Arg(Tos)-Ile-Gly-OH”, for which the step yield was found to be 78.9%.

For “Boc-PheGlyGlyArg(Tos)MetAsp(OBzl)Arg(Tos)IleGlyAlaGlnSer(Bzl)GlyLeuGly-Asu(OH)-OBzl”, the difficulty met entry is recorded as “The compound obtained by changing Met to Met(O) is much involved in the product (about 30%)”.

Substance Boc-R(Tos)MD(OBn)R(Tos)IG-OH showed a step yield of 96%.

“Boc-S(Bn)LR(Tos)R(Tos)S(Bn)S(Bn)C(Meb)FGG-OH”: the step yield was determined as 82.1%.

“Boc-Ser(Bzl)Ser(Bzl)Cys(4-MeBZL)PheGlyGly-OH” returned a step yield of 95.5%.

On to “PEPTIDE1{F.G.G.R.M.D.R.I.G.A.Q.S.G.L.G.[Asu].N.S.F.R.Y}$PEPTIDE1,PEPTIDE1,1:R1-16:R3$$$V2.0”, for which the step yield turned out to be 13%.

Staying with this series, now noted: whole synthesis.
For “PEPTIDE1{S.S.C.F.G.G.R.M.D.R.I.G.A.Q.S.G.L.G.C.N.S}$PEPTIDE1,PEPTIDE1,3:R3-19:R3$$$V2.0”, the isolated yield stood at 10.3%.
